In the supplement of paper PMC4604168 (melanoma cell lines):
This is one part of the list. Single values are uncertain, as repeats are few or missing.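 Cells were imaged in 1,536-well plates, and nuclei stained with an antibody against cleaved PARP were counted against all DNA-stained nuclei to give the apoptosis fraction. Screening doses were chosen to leave most cells alive, and resting and induced cleaved-PARP levels differ strongly between cell lines.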

Key:
Experiment in all cases: cleaved PARP positive nuclei fraction relative to DMSO control; melanoma cells; higher = more apoptosis
Conditions in all cases: library dose: low library concentration; 72 h
MZ2-MEL = system: MZ2-MEL
MeWo = system: MeWo
RPMI7951 = system: RPMI7951
RVH-421 = system: RVH-421
SkMel28 = system: SkMel28
SkMel2 = system: SkMel2
SkMel30 = system: SkMel30
SkMel5 = system: SkMel5
UACC257 = system: UACC257
UACC62 = system: UACC62
WM115 = system: WM115
WM1716 = system: WM1716
WM1745 = system: WM1745
WM3526 = system: WM3526
WM3619 = system: WM3619
WM451Lu = system: WM451Lu

| SMILES | cleaved PARP positive nuclei fraction (MZ2-MEL) [%] | cleaved PARP positive nuclei fraction (MeWo) [%] | cleaved PARP positive nuclei fraction (RPMI7951) [%] | cleaved PARP positive nuclei fraction (RVH-421) [%] | cleaved PARP positive nuclei fraction (SkMel28) [%] | cleaved PARP positive nuclei fraction (SkMel2) [%] | cleaved PARP positive nuclei fraction (SkMel30) [%] | cleaved PARP positive nuclei fraction (SkMel5) [%] | cleaved PARP positive nuclei fraction (UACC257) [%] | cleaved PARP positive nuclei fraction (UACC62) [%] | cleaved PARP positive nuclei fraction (WM115) [%] | cleaved PARP positive nuclei fraction (WM1716) [%] | cleaved PARP positive nuclei fraction (WM1745) [%] | cleaved PARP positive nuclei fraction (WM3526) [%] | cleaved PARP positive nuclei fraction (WM3619) [%] | cleaved PARP positive nuclei fraction (WM451Lu) [%] |
| --- | --- | --- | --- | --- | --- | --- | --- | --- | --- | --- | --- | --- | --- | --- | --- | --- |
| O=c1[nH]nc(Sc2ncc([N+](=O)[O-])s2)n1-c1ccc2c(c1)OCCO2 + CCN(CC)CCCCNc1ncc2cc(-c3cc(OC)cc(OC)c3)c(NC(=O)NC(C)(C)C)nc2n1 [PD173074] (first compound 0.2 µM, partner dose 0.1 µM) | 206 | 80.4 | 50 | 99.8 | 123 | 106 | 41.6 | 239 | 127 | 89.1 | 170 | 103 | 87.5 | 68.6 | 113 | 92.5 |
| O=C(Nc1cc(C(F)(F)F)cc(C(F)(F)F)c1)c1cc(Cl)ccc1O + Cn1cncc1[C@@](N)(c1ccc(Cl)cc1)c1ccc2c(c1)c(-c1cccc(Cl)c1)cc(=O)n2C [tipifarnib] (first compound 0.016 µM, partner dose 0.01 µM) | 45.3 | 196 | 125 | 86.9 | 73.3 | 189 | 143 | 212 | 130 | 285 | 158 | 121 | 95.5 | 63.5 | 102 | 805 |
| Cc1cn(-c2cc(NC(=O)c3ccc(C)c(Nc4nccc(-c5cccnc5)n4)c3)cc(C(F)(F)F)c2)cn1 [nilotinib] + O=C1NC(=O)/C(=C/c2ccc(-c3ccc(F)cc3O)o2)S1 [AS252424] (first compound 0.2 µM, partner dose 1 µM) | 74.9 | 60.9 | 164 | 93.3 | 137 | 185 | 217 | 66.5 | 241 | 106 | 130 | 27.2 | 88.7 | 309 | 187 | 51.7 |
| COc1cc([C@@H]2c3cc4c(cc3[C@@H](O[C@@H]3O[C@@H]5CO[C@@H](C)O[C@H]5[C@H](O)[C@H]3O)[C@H]3COC(=O)[C@H]23)OCO4)cc(OC)c1O [etoposide] + Cc1ccc(NC(=O)c2cccc(N(C)C)c2)cc1NC(=O)c1ccc(O)cc1 [ZM336372] (first compound 0.02 µM, partner dose 2 µM) | 184 | 52.1 | 113 | 130 | 137 | 65.3 | 68.2 | 86.7 | 333 | 180 | 92.4 | 104 | 103 | 69.7 | 102 | 56.4 |
| O=C(Nc1cc(C(F)(F)F)cc(C(F)(F)F)c1)c1cc(Cl)ccc1O + COc1ccc(-c2ccc3c(N4CCOCC4)nc(N4C[C@@H](C)O[C@@H](C)C4)nc3n2)cc1CO [KU0063794] (first compound 0.016 µM, partner dose 0.02 µM) | 193 | 124 | 148 | 49.2 | 185 | 38.9 | 107 | 73.4 | 105 | 125 | 65.4 | 123 | 87.9 | 81.5 | 94.6 | 99.1 |
| Cc1ccc(Nc2nccc(N(C)c3ccc4c(C)n(C)nc4c3)n2)cc1S(N)(=O)=O [Pazopanib] + COc1cc(Nc2ncc(F)c(Nc3ccc4c(n3)NC(=O)C(C)(C)O4)n2)cc(OC)c1OC [Tamatinib] (first compound 0.4 µM, partner dose 0.4 µM) | 142 | 64.6 | 137 | 26.5 | 77 | 95.2 | 259 | 101 | 93.5 | 47.9 | 118 | 95.4 | 98.6 | 66.6 | 105 | 46.6 |
| Cc1ccc(Nc2nccc(N(C)c3ccc4c(C)n(C)nc4c3)n2)cc1S(N)(=O)=O [Pazopanib] + COc1ccc2c(c1)CCC1C2CCC2(C)C(NCCCCCCN3C(=O)C=CC3=O)CCC12 [U73122] (first compound 0.4 µM, partner dose 0.4 µM) | 222 | 116 | 239 | 183 | 90.6 | 35.2 | 30.3 | 256 | 144 | 155 | 153 | 143 | 112 | 80.7 | 117 | 37.2 |
| COc1cc([C@@H]2c3cc4c(cc3[C@@H](O[C@@H]3O[C@@H]5CO[C@@H](C)O[C@H]5[C@H](O)[C@H]3O)[C@H]3COC(=O)[C@H]23)OCO4)cc(OC)c1O [etoposide] + CCc1ccc(CCOc2ccc(CC3SC(=O)NC3=O)cc2)nc1 [pioglitazone] (first compound 0.02 µM, partner dose 2 µM) | 57.4 | 99.2 | 207 | 123 | 139 | 108 | 106 | 100 | 135 | 163 | 119 | 62.1 | 95 | 85.1 | 110 | 49.7 |
| O=C(/C=C/c1cccnc1)NCCCCC1CCN(C(=O)c2ccccc2)CC1 + O=C(Nc1cccc(Cl)c1)Nc1ncc(CCNc2ncnc3ccsc23)s1 [SNS314] (first compound 0.01 µM, partner dose 0.0008 µM) | 369 | 152 | 135 | 327 | 146 | 291 | 72.4 | 78.1 | 75.2 | 71.6 | 360 | 90.8 | 85.3 | 59.9 | 206 | 88.9 |
| CCCCCCCCCCCCCCCCCCOP(=O)([O-])OC1CC[N+](C)(C)CC1 [Perifosine] + O=C(Nc1cccc(Cl)c1)Nc1ncc(CCNc2ncnc3ccsc23)s1 [SNS314] (first compound 0.4 µM, partner dose 0.0008 µM) | 82.1 | 33.6 | 81.1 | 50.4 | 63.7 | 95.3 | 71.2 | 73.4 | 39.9 | 53.7 | 260 | 69.5 | 109 | 129 | 106 | 291 |
| Cc1cn(-c2cc(NC(=O)c3ccc(C)c(Nc4nccc(-c5cccnc5)n4)c3)cc(C(F)(F)F)c2)cn1 [nilotinib] + COC(=O)c1sccc1S(=O)(=O)Nc1ccc(Nc2ccccc2)cc1OC [GSK0660] (first compound 0.2 µM, partner dose 1 µM) | 173 | 56.3 | 35.2 | 64.5 | 178 | 58.9 | 69.7 | 39.2 | 118 | 49.3 | 46 | 34.5 | 95.4 | 77.2 | 99.1 | 26 |
| O=C(Nc1cc(C(F)(F)F)cc(C(F)(F)F)c1)c1cc(Cl)ccc1O + O=C(Nc1cccc(Cl)c1)Nc1ncc(CCNc2ncnc3ccsc23)s1 [SNS314] (first compound 0.016 µM, partner dose 0.0008 µM) | 192 | 65.4 | 106 | 94.3 | 42.2 | 67.5 | 64.1 | 164 | 166 | 90 | 116 | 75.8 | 98.8 | 55.9 | 212 | 60.3 |
| Cc1cc(Nc2cc(N3CCN(C)CC3)nc(Sc3ccc(NC(=O)C4CC4)cc3)n2)n[nH]1 [Tozasertib] + c1cc(-c2cnn3cc(-c4ccc(OCCN5CCCCC5)cc4)cnc23)ccn1 [Dorsomorphin] (first compound 0.006 µM, partner dose 0.4 µM) | 35.7 | 263 | 52.8 | 70.7 | 71.4 | 52.6 | 62.8 | 63.4 | 53.4 | 121 | 75.7 | 40.7 | 110 | 70.7 | 99.2 | 99.4 |
| O=C(Nc1cc(C(F)(F)F)cc(C(F)(F)F)c1)c1cc(Cl)ccc1O + O=C(O)C(=O)Nc1sc2c(c1C(=O)O)CCNC2 [TCS401] (first compound 0.016 µM, partner dose 1.66667 µM) | 42.9 | 72.2 | 67 | 62.8 | 187 | 75.1 | 36.7 | 81.7 | 83.9 | 102 | 63.4 | 87.9 | 95.3 | 141 | 70.8 | 37.3 |
| O=C(/C=C/c1cccnc1)NCCCCC1CCN(C(=O)c2ccccc2)CC1 + COc1ccc2c(c1)CCC1C2CCC2(C)C(NCCCCCCN3C(=O)C=CC3=O)CCC12 [U73122] (first compound 0.01 µM, partner dose 0.4 µM) | 765 | 148 | 115 | 118 | 166 | 567 | 156 | 84.2 | 181 | 63.9 | 77.5 | 163 | 88.4 | 79.4 | 106 | 97.9 |
| Cc1ccc(Nc2nccc(N(C)c3ccc4c(C)n(C)nc4c3)n2)cc1S(N)(=O)=O [Pazopanib] + Oc1nc(-c2ccc(C(F)(F)F)cc2)nc2c1CSCC2 [XAV939] (first compound 0.4 µM, partner dose 2 µM) | 29.2 | 121 | 96.4 | 82.5 | 138 | 105 | 232 | 50.2 | 190 | 99.8 | 96.3 | 287 | 103 | 40 | 144 | 18.3 |

A run of entries from the list above, for reference:

| SMILES | cleaved PARP positive nuclei fraction (MZ2-MEL) [%] | cleaved PARP positive nuclei fraction (MeWo) [%] | cleaved PARP positive nuclei fraction (RPMI7951) [%] | cleaved PARP positive nuclei fraction (RVH-421) [%] | cleaved PARP positive nuclei fraction (SkMel28) [%] | cleaved PARP positive nuclei fraction (SkMel2) [%] | cleaved PARP positive nuclei fraction (SkMel30) [%] | cleaved PARP positive nuclei fraction (SkMel5) [%] | cleaved PARP positive nuclei fraction (UACC257) [%] | cleaved PARP positive nuclei fraction (UACC62) [%] | cleaved PARP positive nuclei fraction (WM115) [%] | cleaved PARP positive nuclei fraction (WM1716) [%] | cleaved PARP positive nuclei fraction (WM1745) [%] | cleaved PARP positive nuclei fraction (WM3526) [%] | cleaved PARP positive nuclei fraction (WM3619) [%] | cleaved PARP positive nuclei fraction (WM451Lu) [%] |
| --- | --- | --- | --- | --- | --- | --- | --- | --- | --- | --- | --- | --- | --- | --- | --- | --- |
| O=C(Nc1cc(C(F)(F)F)cc(C(F)(F)F)c1)c1cc(Cl)ccc1O + O=C(Nc1cccc(Cl)c1)Nc1ncc(CCNc2ncnc3ccsc23)s1 [SNS314] (first compound 0.016 µM, partner dose 0.0008 µM) | 192 | 65.4 | 106 | 94.3 | 42.2 | 67.5 | 64.1 | 164 | 166 | 90 | 116 | 75.8 | 98.8 | 55.9 | 212 | 60.3 |
| Cc1cc(Nc2cc(N3CCN(C)CC3)nc(Sc3ccc(NC(=O)C4CC4)cc3)n2)n[nH]1 [Tozasertib] + c1cc(-c2cnn3cc(-c4ccc(OCCN5CCCCC5)cc4)cnc23)ccn1 [Dorsomorphin] (first compound 0.006 µM, partner dose 0.4 µM) | 35.7 | 263 | 52.8 | 70.7 | 71.4 | 52.6 | 62.8 | 63.4 | 53.4 | 121 | 75.7 | 40.7 | 110 | 70.7 | 99.2 | 99.4 |
